From publication PMC7862700 come the findings set out here.

Chains of the proteins cited; added tags and fusions are not shown. Lines headed by an entry give the natural chain unless they say otherwise; changes in a name come on top.
UniProt Q99607: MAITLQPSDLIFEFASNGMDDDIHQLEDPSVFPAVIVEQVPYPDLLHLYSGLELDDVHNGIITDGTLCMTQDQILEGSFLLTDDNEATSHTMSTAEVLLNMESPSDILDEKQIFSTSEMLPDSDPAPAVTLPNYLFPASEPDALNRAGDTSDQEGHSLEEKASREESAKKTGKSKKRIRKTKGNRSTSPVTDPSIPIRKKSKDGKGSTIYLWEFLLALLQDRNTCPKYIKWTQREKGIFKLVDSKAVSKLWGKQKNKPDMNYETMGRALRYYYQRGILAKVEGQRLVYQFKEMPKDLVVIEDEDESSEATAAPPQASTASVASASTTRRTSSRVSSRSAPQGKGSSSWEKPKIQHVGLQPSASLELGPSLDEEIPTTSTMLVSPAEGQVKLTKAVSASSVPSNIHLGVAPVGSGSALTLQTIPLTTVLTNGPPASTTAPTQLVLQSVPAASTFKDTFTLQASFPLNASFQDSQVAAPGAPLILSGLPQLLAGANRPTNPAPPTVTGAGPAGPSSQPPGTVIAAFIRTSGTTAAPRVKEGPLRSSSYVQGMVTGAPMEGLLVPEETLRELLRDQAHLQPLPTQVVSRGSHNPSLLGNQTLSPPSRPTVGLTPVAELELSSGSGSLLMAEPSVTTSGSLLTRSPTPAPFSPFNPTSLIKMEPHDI

The entries are a selection whose mix differs from that of the whole data set. For part of these data: At the low end of the ranking the order means little.

The first experiment addresses ELF4 (UniProt Q99607). Nature of the experiment: DAPPL (digital affinity profiling via proximity ligation, sequencing). The conditions noted are these: 10 mM Tris-HCl pH 7.5, 50 mM NaCl, 1 mM DTT, 4% glycerol, room temperature, 30 min; GST-TFs on glutathione beads, 16-mer random dsDNA library, 0.1% …; high values mean tight binding; double strand, one strand shown; scale: fold enrichment (6-mer frequency, TF over GST control).
For CCTGTT, the binding signal was 1.72.
The same measure, in the same setting: to GCTTTG belongs 1.17; to TATAGT, 1.03; to GCTCTG, 1.17.
Still for that read-out and setting: to AATGAT belongs 1.17; to TAATCT, 1.51; to TTTGGT, 1.3.
The same measure, in the same setting: the result for TATCTC reads 1.21; that for ATCCCC, 1.37.
CACTAA gave a binding signal of 1.2.
Same read-out and setting: the result for CGAAAC reads 1.2; that for TTGGTG, 1.3; that for TTCTCG, 1.51.
On the same count and under the same terms, the result for TTAAAG reads 1.15; that for ATTATG, 1.22; that for TACTAG, 0.986.
With TGCGAT, the binding signal amounted to 1.2.
TAAATA: the binding signal was 1.26.
TCGATT registered a binding signal of 1.19.
Take ATGGCT: the binding signal was 1.32.
Regarding AAGTCT, the binding signal stood at 1.06.
Same read-out and setting: the result for TCGCGC reads 0.994; that for GATGAT, 1.32.
The same measure, in the same setting: to CGCCTT belongs 1.54; to CTCTGT, 1.33.
Still for that read-out and setting: to ACTGGC belongs 1.16; to ATACTA, 1.19.
AACCAT displayed a binding signal of 1.15.
Still for that read-out and setting: to CATCCC belongs 1.22; to GATATA, 1.06.
With CTTGAT, the binding signal turned out to be 1.43.
On the same count and under the same terms, to TAATGT belongs 1.11.
On the same count and under the same terms, the result for ATAGAA reads 1.1.
TTTGAA: the binding signal was found to be 1.32.
For the sequence CATATA, the binding signal was determined as 1.11.
The same measure, in the same setting: the result for ACTCGC reads 1.1; that for TTCCCC, 1.78.
In the case of TCTTGT, the binding signal is 1.66.

The next experiment has as its target T1, ETV2 (UniProt O00321).
T1 sequence: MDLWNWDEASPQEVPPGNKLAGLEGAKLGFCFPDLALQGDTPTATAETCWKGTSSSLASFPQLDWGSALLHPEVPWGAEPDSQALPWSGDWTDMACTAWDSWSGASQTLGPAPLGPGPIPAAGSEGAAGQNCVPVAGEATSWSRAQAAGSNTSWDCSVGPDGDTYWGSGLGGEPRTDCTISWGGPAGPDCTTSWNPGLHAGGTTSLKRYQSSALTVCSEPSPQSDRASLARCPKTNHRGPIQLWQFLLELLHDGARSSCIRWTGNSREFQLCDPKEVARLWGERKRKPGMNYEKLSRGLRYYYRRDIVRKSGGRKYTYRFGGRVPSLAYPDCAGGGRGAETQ
The experiment is described as above. The conditions noted are these: 10 mM Tris-HCl pH 7.5, 50 mM NaCl, 1 mM DTT, 4% glycerol, room temperature, 30 min; GST-TFs on glutathione beads, 16-mer random dsDNA library, 0.1% …; high values mean tight binding; double strand, one strand shown; scale: fold enrichment (6-mer frequency, TF over GST control).
The sequence TATAGT showed a binding signal of 1.12.
Still for that read-out and setting: the result for GCTCTG reads 1; that for AATGAT, 1.21; that for TAATCT, 1.34.
The same measure, in the same setting: to ATCCCC belongs 1.39.
The sequence CACTAA yielded a binding signal of 1.2.
Same read-out and setting: the result for TTCTCG reads 1.4; that for TTAAAG, 1.12; that for ATTATG, 1.03.
TACTAG gave a binding signal of 1.17.
Sequence TGCGAT had a binding signal of 1.17.
In the case of TAAATA, the binding signal is 1.36.
TCGATT: the binding signal is 1.04.
The same measure, in the same setting: the result for GATGAT reads 1.33.
Sequence CTCTGT came in with a binding signal of 1.39.
For the sequence ATACTA, the binding signal is 1.14.
The same measure, in the same setting: to CATCCC belongs 1.15; to TTTGAA, 1.38; to CATATA, 1.17.
